Results are given in words; binding and its absence hold for the method and conditions named. In cells and extracts the contact can be indirect. Some entries that bind do so weakly or less than the wild type.
Biological target: Flag‐tagged bone morphogenetic protein receptor one alpha (BMPR1α) (mouse (from the plasmid's name mBMPR1α)) (UniProt P36895)
Experiment: co-IP; HEK293T cells transfected with Gal‐3, Flag‐BMPR1α and/or HA‐BMPR2, harvested 48 hr post-transfection; 200 μg protein, 1 μg monoclonal antibody (anti‐Flag, anti‐HA or anti‐Gal‐3) and protein G microbeads (μMACS), 30 min on ice; western blot

Chains of the proteins cited; added tags and fusions are not shown. Residues count along the entry.
UniProt P36895, residues 24-532: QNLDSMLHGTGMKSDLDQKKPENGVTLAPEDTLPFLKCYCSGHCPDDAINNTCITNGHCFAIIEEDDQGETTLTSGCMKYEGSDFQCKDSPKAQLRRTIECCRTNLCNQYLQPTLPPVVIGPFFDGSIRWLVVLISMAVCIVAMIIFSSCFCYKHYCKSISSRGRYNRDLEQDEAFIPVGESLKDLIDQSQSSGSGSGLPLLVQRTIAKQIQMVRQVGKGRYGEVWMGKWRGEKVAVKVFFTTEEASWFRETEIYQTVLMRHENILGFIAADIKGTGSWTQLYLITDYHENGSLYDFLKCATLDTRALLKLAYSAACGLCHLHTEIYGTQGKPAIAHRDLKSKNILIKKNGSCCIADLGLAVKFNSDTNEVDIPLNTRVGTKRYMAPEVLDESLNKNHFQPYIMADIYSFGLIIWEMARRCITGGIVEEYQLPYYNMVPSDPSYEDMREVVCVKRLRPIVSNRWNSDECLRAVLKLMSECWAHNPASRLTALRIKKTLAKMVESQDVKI
UniProt P16110: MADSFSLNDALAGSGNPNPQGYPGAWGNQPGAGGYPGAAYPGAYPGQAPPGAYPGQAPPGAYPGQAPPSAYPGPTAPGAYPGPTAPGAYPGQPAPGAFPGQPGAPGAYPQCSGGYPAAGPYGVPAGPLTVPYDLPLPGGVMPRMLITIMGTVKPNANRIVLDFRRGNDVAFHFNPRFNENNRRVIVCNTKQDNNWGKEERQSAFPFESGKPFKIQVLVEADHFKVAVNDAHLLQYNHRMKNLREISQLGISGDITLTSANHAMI

Question: Which binding does the source give for Galectin‐3 (from UniProt P16110 1-264) here?
Answer: binds

From article PMC6916335
